# Among all 360,000 compounds or so, about 1,700 (0.47%) were called active. Inconclusive results, whose numbers are uncertain, are shown with a selection of clear calls. Calls come from the whole dose curve; as a rule, active = well fitted inhibition curve with a large enough effect; inconclusive = small, poorly fitted or top-dose-only effect; inactive = no such curve, though single readings can be large or run the other way. Potencies beside an inconclusive call are fits to weak or partial responses and may not hold up. Some structures have more than one record in an assay (separate samples or runs), and their calls can disagree.
# Sequences of proteins named here, by UniProt entry; tags and fusion partners are left off.
# UniProt Q14191, whole entry, looked up: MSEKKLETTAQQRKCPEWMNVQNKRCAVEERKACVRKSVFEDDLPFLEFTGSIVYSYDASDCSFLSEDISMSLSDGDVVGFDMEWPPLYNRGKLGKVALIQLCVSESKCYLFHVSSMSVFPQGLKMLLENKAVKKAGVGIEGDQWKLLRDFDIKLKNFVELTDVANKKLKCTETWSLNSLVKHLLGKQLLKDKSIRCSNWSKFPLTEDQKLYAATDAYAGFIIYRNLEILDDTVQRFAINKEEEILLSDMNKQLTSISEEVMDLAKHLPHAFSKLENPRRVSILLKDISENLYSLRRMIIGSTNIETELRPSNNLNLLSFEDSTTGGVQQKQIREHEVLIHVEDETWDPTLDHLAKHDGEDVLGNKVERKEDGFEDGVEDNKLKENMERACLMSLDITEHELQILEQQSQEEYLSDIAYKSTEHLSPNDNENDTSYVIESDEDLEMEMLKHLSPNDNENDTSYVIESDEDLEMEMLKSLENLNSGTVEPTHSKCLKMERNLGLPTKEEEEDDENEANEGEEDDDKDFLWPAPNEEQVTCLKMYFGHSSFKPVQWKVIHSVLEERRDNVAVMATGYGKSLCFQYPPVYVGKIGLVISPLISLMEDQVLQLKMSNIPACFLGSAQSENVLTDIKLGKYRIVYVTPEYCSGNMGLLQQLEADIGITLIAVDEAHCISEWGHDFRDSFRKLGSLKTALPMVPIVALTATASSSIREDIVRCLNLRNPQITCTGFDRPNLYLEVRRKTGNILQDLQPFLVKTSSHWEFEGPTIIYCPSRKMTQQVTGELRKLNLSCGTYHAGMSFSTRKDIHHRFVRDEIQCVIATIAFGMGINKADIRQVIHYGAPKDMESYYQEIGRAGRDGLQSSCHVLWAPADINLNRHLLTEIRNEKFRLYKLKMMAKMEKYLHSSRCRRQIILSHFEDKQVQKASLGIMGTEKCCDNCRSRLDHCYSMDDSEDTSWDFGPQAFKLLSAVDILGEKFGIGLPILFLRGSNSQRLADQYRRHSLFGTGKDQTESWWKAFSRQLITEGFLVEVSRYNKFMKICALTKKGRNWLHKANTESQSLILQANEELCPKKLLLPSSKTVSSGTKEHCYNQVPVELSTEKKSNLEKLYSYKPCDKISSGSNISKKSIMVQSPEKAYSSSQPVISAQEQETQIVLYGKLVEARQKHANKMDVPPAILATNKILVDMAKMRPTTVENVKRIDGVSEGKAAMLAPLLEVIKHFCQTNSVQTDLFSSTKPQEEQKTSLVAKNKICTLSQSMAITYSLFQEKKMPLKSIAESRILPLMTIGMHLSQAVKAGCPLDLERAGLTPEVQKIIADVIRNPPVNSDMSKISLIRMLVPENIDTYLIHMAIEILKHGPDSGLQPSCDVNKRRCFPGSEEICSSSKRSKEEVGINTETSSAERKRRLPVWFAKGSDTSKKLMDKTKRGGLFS
# Molecular target: Bifunctional 3'-5' exonuclease/ATP-dependent helicase WRN (Homo sapiens) (UniProt Q14191)
# Experiment: qHTS for Inhibitors of WRN Helicase; note: nearly all actives have a fitted effect of over 55% in size
# Details: WRN helicase unwinding, fluorescent forked duplex, kinetic; series mostly up to 114 µM
# In short: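 Kinetic fluorescence helicase assay: unwinding of a quenched forked DNA duplex (100 nM final) with 2 mM ATP final raises red fluorescence (525/598 nm). Compounds sat 15 min at room temperature with 20 nM WRN beforehand.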
# Potency is the fitted concentration of half-maximal effect.
row,Compound,Potency
1,Nc1cc(Cl)c2nonc2c1[N+](=O)[O-],"inconclusive: 39.8 µM [inhibitor, partial curve]"
2,COc1cc(C=C2C(=O)NC(=O)NC2=O)ccc1OS(=O)(=O)c1ccccc1[N+](=O)[O-],active: 28.2 µM
3,O=C1NC(=O)N(c2ccccc2)C(=O)/C1=C/c1coc2ccc(O)cc2c1=O,"inconclusive: 21.2 µM [inhibitor, single point]"
4,NP(=O)(OCCCc1ccccc1)Oc1ccccc1Cl (centres undefined),inactive
5,O=C(N/N=C/c1c(O)n(CCc2ccc(F)cc2)c(=O)[nH]c1=O)c1ccncc1,inactive
6,COc1cccc(C2CCN(CC(=O)Nc3cc(Cl)ccc3OC)CC2O)c1 (centres undefined),"inconclusive: 79.4 µM [inhibitor, partial curve]"
7,O=C1NC(=S)N(c2ccc(F)cc2)C(=O)/C1=C\c1ccoc1,"inconclusive: 10 µM [inhibitor, full curve, poor fit]"
8,Oc1c(Br)c(Br)c(Br)c(Br)c1Br,inactive
9,O=C1Nc2ccccc2/C1=C/c1nc2ccccc2c(=O)n1-c1ccc(O)cc1,"inconclusive: 79.4 µM [inhibitor, partial curve]"
10,C[n+]1c(-c2ccccc2)c2cc(N)ccc2c2ccc(N)cc21,active: 2.67 µM
11,N=C1/C(=C\c2ccc(OC(=O)c3ccccc3Cl)cc2)C(=O)N=C2SC(N3CCOCC3)=NN12,"inconclusive: 70.8 µM [inhibitor, single point]"
12,CN1C(=O)N(C)C(=O)C2(Cc3c(nc4ccccn4c3=O)N3CCc4ccccc4C32)C1=O (centres undefined),inactive
13,O=C(CCN1CC2CCC(CC2)C1)c1cccs1,"inconclusive: 14.1 µM [inhibitor, full curve]"
14,CCOC(=O)c1cc(C)sc1/N=C/C1C(=O)NC(=S)NC1=O,active: 50.1 µM
15,Cc1ccnc(-n2c(C)cc(C=C3C(=O)N(C)C(=S)N(C)C3=O)c2C)c1,"inconclusive: 79.4 µM [inhibitor, single point]"
16,COC(=O)C1=C(c2cccc(OCc3ccccc3)c2)C[C@@H]2CC[C@H]1N2C(=O)NCc1ccc(C(C)(C)C)cc1,inactive
17,O=C(COc1ccc(Cl)cc1)N(c1ccccc1Cl)C1CN2CCC1CC2 (centres undefined),"inconclusive: 3.55 µM [inhibitor, full curve, poor fit]"
18,CCOc1cccc(OCC)c2c(C)[n+](CC3CCCO3)c(C)c1-2 (centres undefined),inactive
19,CN1CCC2(CC1)C(C#N)=C(N)NC(S)=C2C#N,active: 56.2 µM
20,CCN1C(=O)C(=C/C=C/c2ccco2)C(=O)N(CC)C1=S,active: 28.2 µM
21,O=C(Cc1cccs1)N1Cc2ccccc2-n2nncc2C1,"inconclusive: 56.2 µM [inhibitor, partial curve]"
22,CC1=NN(c2ccccc2)C(=O)/C1=C/c1c(O)[nH]c(=S)[nH]c1=O,"inconclusive: 112 µM [inhibitor, partial curve, poor fit]"

row,Compound,Potency
1,Cc1ccc(/C=C2\C(=O)NC(=S)N(c3ccccc3F)C2=O)s1,active: 50.1 µM
2,O=C(O)CCC(=O)NCCC1=c2ccccc2=N/C1=C\c1c(O)n(Cc2ccc(F)cc2)c(=S)[nH]c1=O,active: 79.4 µM
3,Cc1[nH]n(-c2ccccc2)c(=O)c1C(c1cccc([N+](=O)[O-])c1O)c1c(C)[nH]n(-c2ccccc2)c1=O,"inconclusive: 50.1 µM [inhibitor, partial curve]"
4,O=C(O)c1ccc2c(c1)C1C(Cl)C(Sc3ccccc3[N+](=O)[O-])CC1C(c1cccc([N+](=O)[O-])c1)N2 (centres undefined),"inconclusive: 22.4 µM [inhibitor, single point]"
5,CC1(C)C(c2ccccc2)=NC(c2cccnc2)=[N+]1[O-],active: 50.1 µM
6,CCOc1ccccc1OCC(=O)Nc1ccc(Cl)cc1C(=O)c1ccccc1,"inconclusive: 39.8 µM [inhibitor, single point]"
7,COc1ccccc1N1C(=O)NC(=O)/C(=C/c2ccc([N+](=O)[O-])s2)C1=O,active: 35.5 µM
8,CC[C@H](C)/C=C(C)/C=C/C1=CC2=C(Cl)C(=O)[C@](C)(OC(C)=O)C(=O)C2=CO1,active: 50.1 µM
9,c1ccc(-c2nc(N3CCOCC3)s[n+]2-c2ccccc2)cc1,"inconclusive: 56.2 µM [inhibitor, partial curve]"
10,CN1CCN(c2ccc(NC(=O)Oc3ccccc3)cc2)CC1,inactive
11,Cc1ccc(/C=C2/C(=O)NC(=O)N(CCc3ccc(F)cc3)C2=O)o1,active: 50.1 µM
12,CCCCCn1c(NC(=O)c2ccco2)c(C(=O)OCC)c2nc3ccccc3nc21,"inconclusive: 56.2 µM [inhibitor, partial curve]"
13,O=C1NC(=O)C(=Cc2ccsc2)C(=O)N1,"inconclusive: 50.1 µM [inhibitor, partial curve]"
14,CC1CCN(C(CC(=O)c2ccccc2)C(=O)c2ccccc2)CC1 (centres undefined),active: 7.94 µM
15,Cn1cccc1/C=C1/C(=O)NC(=O)N(Cc2ccc(F)cc2)C1=O,"inconclusive: 50.1 µM [inhibitor, partial curve]"
16,Cc1c(C=O)c2ccccc2n1Cc1ccccc1,"inconclusive: 79.4 µM [inhibitor, single point]"
17,CNC(C(=O)c1ccccc1)C(OC)c1cccc([N+](=O)[O-])c1 (centres undefined),"inconclusive: 3.16 µM [inhibitor, full curve, poor fit]"
18,Cc1ccc(OP(=O)(O)Oc2ccc(C)cc2)cc1,"inconclusive: 17.8 µM [inhibitor, full curve, poor fit]"
19,Cc1ccnc(-n2c(C)cc(/C=C3\C(=O)NC(=S)N(C)C3=O)c2C)c1,"inconclusive: 25.1 µM [inhibitor, single point]"
20,Cc1ccc(N2C(=O)NC(=O)/C(=C\c3cc(C)n(-c4sc5c(c4C#N)CCCC5)c3C)C2=O)cc1,active: 50.1 µM
21,O=C1NC(=O)C(=Cc2ccc(Oc3ccc([N+](=O)[O-])cc3)cc2)C(=O)N1,active: 25.1 µM
22,C=CCn1cc(C=C2C(=O)NC(=O)NC2=O)c2ccccc21,"inconclusive: 39.8 µM [inhibitor, partial curve]"

# Two consecutive compounds from above, for reference:
row,Compound,Potency
22,CC1=NN(c2ccccc2)C(=O)/C1=C/c1c(O)[nH]c(=S)[nH]c1=O,"inconclusive: 112 µM [inhibitor, partial curve, poor fit]"
1,Cc1ccc(/C=C2\C(=O)NC(=S)N(c3ccccc3F)C2=O)s1,active: 50.1 µM
